# Data: the supplement of paper PMC4807443
# Structures can show the parent of a compound that is named as a salt. This is one part of the list. The numbers are fractions of the control, whatever unit the source prints. Most values lie at the level of the controls, where differences are scatter.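 MIN6 is a mouse insulinoma beta-cell line that stably carries a lentiviral reporter in which the Pdx1 and Ins1 promoters each drive a nucleus-targeted fluorescent protein; cells were counted by automated imaging with a Hoechst nuclear stain. In the screen, a drug was a possible hit when its Ins1 promoter readout lay beyond two median absolute deviations from the DMSO controls while Pdx1 activity stayed near normal.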
# Test system: MIN6
# Experiment: % Pdx1+ Ins1+ (double-positive, mature) cells relative to DMSO control (fold of DMSO control); higher = more mature Ins1 promoter-active cells
# Conditions: 8.5 µM; 48 h; glucose 5 mM
row,SMILES,% Pdx1+ Ins1+
1,CN(C)C(=O)Oc1cccc([N+](C)(C)C)c1 [Neostigmine bromide],1.07
2,"CNC(=O)Oc1ccc2c(c1)[C@]1(C)CCN(C)[C@@H]1N2C [Eserine sulfate, physostigmine sulfate]",0.875
3,CN1CCc2cc3c(cc2C1O)OCO3 (centres undefined) [Hydrastinine hydrochloride],1.09
4,CCNCC(O)c1cccc(O)c1 (centres undefined) [Etilefrine hydrochloride],1.02
5,CN1[C@@H]2CC[C@H]1C[C@@H](OC(=O)C(CO)c1ccccc1)C2 (some centres undefined) [Atropine sulfate monohydrate],0.974
6,CC(C)C[C@H]1C(=O)N2CCC[C@H]2[C@]2(O)O[C@](NC(=O)[C@@H]3C=C4c5cccc6[nH]c(Br)c(c56)C[C@H]4N(C)C3)(C(C)C)C(=O)N12 [Bromocryptine mesylate],0.709
7,CNC(C)(C)Cc1ccccc1 [Mephentermine hemisulfate],0.892
8,CN1Cc2c(ccc3c2OCO3)C2C(O)Cc3cc4c(cc3C21)OCO4 (stereo not drawn) [Chelidonine (+)],0.942
9,CN1CCC2=C[C@H](O)[C@H]3OC(=O)c4cc5c(cc4[C@H]3[C@@H]21)OCO5 [Hippeastrine hydrobromide],0.916
10,CC1OC(OC2/C=C/C=C/C=C/C=C/CC/C=C/C=C/[C@H](C)[C@@H](O)[C@@H](C)[C@H](C)OC(=O)CC(O)CC(O)CC(O)CCC(O)C(O)C[C@]3(O)CC(O)C(C(=O)O)C(C2)O3)C(O)C(N)C1O (some centres undefined) [Nystatine],0.963
11,NCCC(O)C(=O)NC1CC(N)C(OC2OC(CN)C(O)[C@H](O)[C@@H]2N)[C@H](OC2O[C@H](CO)[C@@H](O)[C@@H]2O)[C@@H]1O (some centres undefined) [Butirosin disulfate salt],0.918
12,Cc1cc2c(C(C)C)c(O)c(O)c(C=O)c2c(O)c1-c1c(C)cc2c(C(C)C)c(O)c(O)c(C=O)c2c1O [Gossypol],0.833
13,O=c1[nH]c2ccccc2n1C1CCN(CCCC(c2ccc(F)cc2)c2ccc(F)cc2)CC1 [Pimozide],0.782
14,CC[C@H]1CN2CC[C@H]1C[C@H]2[C@H](O)c1ccnc2ccc(OC)cc12 [Hydroquinine hydrobromide hydrate],0.896
15,C[C@@H]1O[C@@H](O[C@@H]2C=C3CC[C@@H]4[C@H](CC[C@]5(C)[C@@H](c6ccc(=O)oc6)CC[C@]45O)[C@@]3(C)CC2)[C@H](O)[C@H](O)[C@H]1O [Proscillaridin A],0.795
16,C#CCN(C)[C@H](C)Cc1ccccc1 [Selegiline hydrochloride],0.851
17,C[C@]12CC[C@@H](O)C[C@H]1CC[C@@H]1[C@@H]2CC[C@]2(C)C(=O)CC[C@@H]12 [3-alpha-Hydroxy-5-beta-androstan-17-one],0.843
18,"COc1ccc(CC2c3cc(OC)c(OC)cc3CCN2C)cc1OC (racemic) [Laudanosine (R,S)]",0.951
19,CCCC(C)(COC(N)=O)COC(=O)NC(C)C (centres undefined) [Carisoprodol],0.882
20,C[C@@]12C(=O)OC(=O)[C@]1(C)[C@H]1CC[C@@H]2O1 [Cantharidin],0.875
21,CCC1(C)CC(=O)NC(=O)C1 [Bemegride],0.962
22,CN1C2CCC1CC(O)C2 (centres undefined) [Tropine],0.942

row,SMILES,% Pdx1+ Ins1+
1,C[N+]1(C)CCCC(OC(=O)C(O)(c2ccccc2)c2ccccc2)C1 (centres undefined) [Mepenzolate bromide],0.935
2,OC(c1ccccc1)(c1ccccc1)C1CCNCC1 [Azacyclonol],1.12
3,O=C(CCCN1CCC(n2c(=O)[nH]c3ccccc32)CC1)c1ccc(F)cc1 [Benperidol],0.842
4,COc1ccc(C(=O)OC2C[C@H]3CC[C@@H](C2)N3C)cc1OC (some centres undefined) [Convolamine hydrochloride],0.853
5,C[C@H]1CC[C@]2(NC1)O[C@H]1C[C@H]3[C@@H]4CC[C@H]5C[C@@H](O[C@@H]6O[C@H](CO)[C@H](O[C@@H]7O[C@H](CO)[C@@H](O)[C@H](O[C@@H]8OC[C@@H](O)[C@H](O)[C@H]8O)[C@H]7O[C@@H]7O[C@H](CO)[C@@H](O)[C@H](O)[C@H]7O)[C@H](O)[C@H]6O)CC[C@]5(C)[C@H]4CC[C@]3(C)[C@H]1[C@@H]2C [Tomatine],0.754
6,COc1cc2c(cc1O)C[C@H]1c3c(cc(O)c(OC)c3-2)CCN1C [Boldine],0.886
7,C[C@@H]1CN([C@H]2CC[C@](C#N)(c3ccc(F)cc3)CC2)CC[C@]1(C(=O)O)c1ccccc1 [Levocabastine hydrochloride],1.11
8,CCC(=O)O[C@H]1CC[C@H]2[C@@H]3CCC4=CC(=O)CC[C@]4(C)[C@H]3CC[C@]12C [Testosterone propionate],0.992
9,COc1ccc(OC)c(C(O)C(C)N)c1 (centres undefined) [Methoxamine hydrochloride],0.851
10,C[C@@H]1CC[C@]2(NC1)O[C@H]1C[C@H]3[C@@H]4CC=C5C[C@@H](O)CC[C@]5(C)[C@H]4CC[C@]3(C)[C@H]1[C@@H]2C [Solasodine],0.94
11,CN1C2CC(=O)CC1C(O)C2 (centres undefined) [6-Hydroxytropinone],1.02
12,CO[C@@H]1C=C2CCN(C)[C@@H]2C2c3cc4c(cc3C(=O)OC21)OCO4 (some centres undefined) [Ungerine nitrate],0.818
13,CN1C(=O)CCS(=O)(=O)C1c1ccc(Cl)cc1 (centres undefined) [Chlormezanone],1.16
14,CC(=O)[C@H]1CC[C@H]2[C@@H]3CC[C@H]4C[C@H](O)CC[C@]4(C)[C@H]3C(=O)C[C@]12C [Alfaxalone],0.941
15,CCCN1CCC[C@@H]2Cc3n[nH]cc3C[C@H]21 [(-)-Quinpirole hydrochloride],0.895
16,CC(C)c1cccc(C(C)C)c1O [Propofol],1.05
17,C[C@]12CC[C@H](O)C[C@H]1CC[C@@H]1[C@@H]2CC[C@]2(C)[C@@H](C3=CC(=O)OC3)CC[C@]12O [Digitoxigenin],0.937
18,CN1CCc2cc3c(cc2[C@H]1[C@@H]1OC(=O)c2c1ccc1c2OCO1)OCO3 [Bicuculline (+)],0.946
19,COC1=CC(=O)O[C@@H](/C=C/c2ccccc2)C1 [Kawain],1.13
20,Oc1ccc2c3c1O[C@H]1[C@@H](O)CC[C@@]4(O)[C@@H](C2)N(CC2CCC2)CC[C@]314 [Nalbuphine hydrochloride],1.16
21,CN1C[C@H](CNC(=O)OCc2ccccc2)C[C@@H]2c3cccc4c3c(cn4C)C[C@H]21 [Metergoline],0.475
22,O=C(NCNC(=O)NC1C(=O)NC(=O)N1CO)NC1C(=O)NC(=O)N1CO (centres undefined) [Imidurea],1.05

# Part of the list above, with bars between the fields.
row | SMILES | % Pdx1+ Ins1+
10 | CC1OC(OC2/C=C/C=C/C=C/C=C/CC/C=C/C=C/[C@H](C)[C@@H](O)[C@@H](C)[C@H](C)OC(=O)CC(O)CC(O)CC(O)CCC(O)C(O)C[C@]3(O)CC(O)C(C(=O)O)C(C2)O3)C(O)C(N)C1O (some centres undefined) [Nystatine] | 0.963
11 | NCCC(O)C(=O)NC1CC(N)C(OC2OC(CN)C(O)[C@H](O)[C@@H]2N)[C@H](OC2O[C@H](CO)[C@@H](O)[C@@H]2O)[C@@H]1O (some centres undefined) [Butirosin disulfate salt] | 0.918
12 | Cc1cc2c(C(C)C)c(O)c(O)c(C=O)c2c(O)c1-c1c(C)cc2c(C(C)C)c(O)c(O)c(C=O)c2c1O [Gossypol] | 0.833

# The listing continues.

row,SMILES,% Pdx1+ Ins1+
1,CC(=O)O[C@H]1CC[C@@]2(C)C(=CC[C@@H]3[C@@H]2CC[C@]2(C)C(=O)CC[C@@H]32)C1 [Dehydroisoandosterone 3-acetate],0.869
2,COc1cc2c(c(OC)c1OC)-c1ccc(OC)c(=O)cc1[C@@H](NC(C)=O)CC2 [Colchicine],0.465
3,C[C@H]1O[C@@H](O[C@H]2CC[C@]3(C=O)[C@H]4CC[C@]5(C)[C@@H](C6=CC(=O)OC6)CC[C@]5(O)[C@@H]4CC[C@]3(O)C2)C[C@H](O)[C@@H]1O [Helveticoside],0.806
4,"COc1ccc2c(c1OC)CN1CCc3cc4c(cc3C1C2)OCO4 (centres undefined) [(d,l)-Tetrahydroberberine]",0.849
5,CC[N+]1(C)CCCC(OC(=O)C(O)(c2ccccc2)c2ccccc2)C1 (centres undefined) [Pipenzolate bromide],0.875
6,CCCCCC[C@H]1C(=O)O[C@H](C)[C@H](NC(=O)c2cccc(NC=O)c2O)C(=O)O[C@@H](C)[C@@H]1OC(=O)CC(C)C [Antimycin A],0.055
7,C=C1C/C(=C/C)C(=O)O[C@@H]2CCN3CC=C(COC(=O)[C@]1(C)O)[C@H]23 [Seneciphylline],0.804
8,c1ccc2c(c1)OCC(C1=NCCN1)O2 (centres undefined) [Idazoxan hydrochloride],1.01
9,C[C@@H]1C[C@@H]([C@H](O)CC2CC(=O)NC(=O)C2)C(=O)[C@@H](C)C1 [Cycloheximide],1.27
10,COc1ccc2c(c1OC)C(=O)O[C@@H]2[C@H]1c2cc3c(cc2CCN1C)OCO3 [Hydrastine hydrochloride],0.907
11,CC[C@@H](CO)NC(=O)[C@@H]1C=C2c3cccc4[nH]cc(c34)C[C@H]2N(C)C1 [Methylergometrine maleate],0.882
12,O=c1[nH]oc2c1CCNC2 [THIP Hydrochloride],1.11
13,c1cncc([C@@H]2CCCCN2)c1 [Anabasine],0.746
14,CCN1C[C@]2(COC)CC[C@H](OC)[C@]34C5C[C@@H]6[C@@H](OC)C[C@@]7(OCO[C@@]7(C13)[C@@H](O)C24)C5[C@H]6OC (some centres undefined) [Delcorine],0.902
15,CCN1C[C@]2(COC)CC[C@H](O)[C@]34C1[C@@](O)([C@@H](OC)[C@H]23)[C@@]1(O)C[C@H](OC)[C@H]2C[C@@H]4[C@@H]1[C@H]2OC [Delsoline],0.913
16,O=[N+]([O-])O[C@H]1CO[C@H]2[C@@H]1OC[C@H]2O[N+](=O)[O-] [Isosorbide dinitrate],0.916
17,CC(N)C(O)c1ccccc1 (centres undefined) [Phenylpropanolamine hydrochloride],0.86
18,CC(C)C[C@H]1C(=O)N2CCC[C@H]2[C@]2(O)O[C@](NC(=O)[C@@H]3C=C4c5cccc6[nH]cc(c56)C[C@H]4N(C)C3)(C(C)C)C(=O)N12 [Ergocryptine-alpha],0.425
19,O=C(CCCN1CCC2(CC1)C(=O)NCN2c1ccccc1)c1ccc(F)cc1 [Spiperone],1.04
20,CC[C@@H](C)C(=O)O[C@H]1[C@H](O)[C@H]2[C@@H](CN3C[C@@H](C)CC[C@H]3[C@@]2(C)O)[C@@H]2C[C@]34O[C@]5(O)[C@@H](OC(=O)[C@@](C)(O)CC)CC[C@@]3(C)[C@@H]5[C@@H](OC(C)=O)[C@@H](OC(C)=O)[C@H]4[C@@]21O [Protoveratrine A],0.886
